Measured values published in PubChem BioAssay AID493014 (National Center for Advancing Translational Sciences (NCATS), 2011).
Some of the results follow. These are further read-outs of the screen, such as a control signal, another cell line or another target. No call is given for them. Compounds called inactive in the main read-out are mostly missing here. The note in brackets gives the kind of curve behind each potency; many fits are weak.

Assay: qHTS Assay to Find Inhibitors of Chronic Active B-Cell Receptor Signaling
Conditions: ABC-DLBCL IkBa-CBG/CBR reporter, luminescence ratio (green luciferase fused to IkBa over red control in TMD8 lymphoma cells), 4 h
How it was run: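 Cell line TMD8 (human ABC DLBCL), stably expressing tet-inducible CBG68-IkBa fusion and CBR; IMDM/0.5% FBS; cpd up to 46 uM; dox induction, 4 h, 37C/5% CO2; dual luminescence; green/red ratio; MG132 control.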

[1] = measured here: CBR red luminescence, cell number
[2] = measured here: IkBa-CBG green luminescence

Row | Structure (SMILES) | AC50 [1] | AC50 [2]
1 | CCN(CC)S(=O)(=O)c1ccc(OC)c(NC(=O)Cc2cccs2)c1 | 15.8 µM [rising, single point] | 
2 | CCOc1ccc(-c2cc(CCCC(=O)N3CCN(c4ccc(OC)cc4)CC3)no2)cc1 | 4.61 µM [falling, full curve] | 
3 | Cc1cccc(-n2nnnc2S(C)(=O)=O)c1 | 1.58 µM [falling, full curve] | 1.41 µM [rising, full curve, poor fit]
4 | COc1ccc(NC(=O)c2ccc(COc3ccccc3OC)o2)cc1OC | 5.62 µM [falling, partial curve, poor fit] | 
5 | COC(=O)c1ccccc1OCC(=O)NC1CCCCC1 | 4.11 µM [rising, single point] | 
6 | N#CC1=C(N)N(c2ccccc2)C(=O)C1 | 5.17 µM [rising, full curve, poor fit] | 
7 | COc1ccc(N2CCN(C(=O)c3c(C)nn(-c4ccccc4)c3C)CC2)cc1 | 1.64 µM [rising, full curve, poor fit] | 
8 | CC(C)(C)N=Cc1cc(-c2ccccc2)sc1O | 11.6 µM [rising, partial curve, poor fit] | 
9 | C[C@H]1C[C@@H]2[C@H]([C@@H](O)C[C@@]3(C)[C@H]2CC[C@]3(O)C(=O)CO)[C@@]2(C)C=CC(=O)C=C12 | 0.00461 µM [rising, full curve, poor fit] | 23.1 µM [falling, partial curve]
10 | COc1ccc(Nc2ccc(S(=O)(=O)N3CCCCC3)cc2[N+](=O)[O-])cc1Cl | 3.26 µM [rising, partial curve, poor fit] | 
11 | CCC(=O)Nc1ccc(C(=O)OCC(=O)c2ccc(C)c([N+](=O)[O-])c2)cc1 | 5.62 µM [rising, single point] | 
12 | CCN(CC)C(=O)C1CCCN(c2ncnc3c2cnn3-c2ccc(Cl)cc2)C1 (stereo not drawn) | 12.6 µM [falling, partial curve, poor fit] | 
13 | COc1ccc(-c2nnc(SCCc3ccccc3)n2N)cc1 | 4.11 µM [rising, single point] | 
14 | Cc1cc(Nc2ncc(Cl)cc2Cl)n[nH]1 | 9.2 µM [rising, partial curve] | 
15 | CCOc1cccc2sc(NC(=O)CCS(=O)(=O)c3ccccc3)nc12 | 8.91 µM [falling, partial curve] | 
16 | O=C(COC(=O)CNC(=O)C12CC3CC(CC(C3)C1)C2)NC1CCS(=O)(=O)C1 (stereo not drawn) | 6.51 µM [rising, partial curve, poor fit] | 
17 | Cc1nc(NS(=O)(=O)c2ccccc2)sc1C(=O)N/N=C/c1ccccc1 | 10 µM [falling, partial curve, poor fit] | 
18 | COc1cc(/C=N/N2CCCCC2)cc(OC)c1O | 35.5 µM [rising, partial curve, poor fit] | 
19 | COC(=O)c1sccc1NC(=O)CSc1ccccc1NS(=O)(=O)c1ccccc1Cl | 14.6 µM [falling, single point] | 
20 | Cn1nnnc1Sc1ncnc2scc(-c3cccc(C(F)(F)F)c3)c12 | 5.17 µM [falling, partial curve] | 

Row | Structure (SMILES) | AC50 [1] | AC50 [2]
21 | O=C(N/N=C/c1ccc(Br)o1)c1cc([N+](=O)[O-])cc([N+](=O)[O-])c1 | 0.708 µM [rising, full curve, poor fit] | 
22 | Cc1ccc(CC(=O)NCc2ccc(F)cc2)cc1 | 0.891 µM [rising, full curve] | 
23 | COc1ccc(OC)c(C(c2c(C)[nH][nH]c2=O)c2c(C)[nH][nH]c2=O)c1 | 2 µM [falling, full curve, poor fit] | 
24 | CCOC(=O)c1c(NC(NC(C)=O)C(Cl)(Cl)Cl)sc(C(C)=O)c1C (stereo not drawn) | 6.31 µM [falling, partial curve, poor fit] | 
25 | Nc1nc(-c2ccco2)c(-c2ccco2)s1 | 3.55 µM [falling, partial curve] | 
26 | NC(=O)c1c(NC(=O)c2cc3ccccc3o2)sc2c1CCC2 | 1.58 µM [falling, full curve, poor fit] | 
27 | CC1(C)CC(=O)C=C(c2cccc(CO)c2)C1 | 0.82 µM [rising, full curve, poor fit] | 
28 | Cc1ccc(S(=O)(=O)c2ccc(Cl)cc2)cc1S(=O)(=O)N1CCN(C)CC1 | 1.84 µM [rising, single point] | 
29 | CC(=O)c1sc(-c2cccc(Cl)c2)nc1C | 12.6 µM [rising, single point] | 
30 | Cc1ccnc(NC(=O)Cc2ccc(-c3ccccc3)cc2)c1 | 35.5 µM [falling, single point] | 
31 | CCOC(=O)COc1ccc2ccccc2c1/C=C/[N+](=O)[O-] |  | 6.51 µM [falling, single point]
32 | O=C(NCc1ccccn1)Nc1ccccc1F | 20 µM [falling, partial curve, poor fit] | 
33 | COc1ccc(CCN(C)C(=O)CCNC(=O)c2ccc(Br)cc2)cc1OC | 5.62 µM [rising, single point] | 
34 | O=c1cccc2c1c1cc[nH]c3ccc(=O)n2c31 | 0.411 µM [falling, partial curve, poor fit] | 23.1 µM [rising, partial curve, poor fit]
35 | CCOc1ccc(-n2c(=O)c3ccccc3c3ccccc3c2=O)cc1 | 3.16 µM [falling, partial curve, poor fit] | 
36 | C/C(=N\NC(=O)c1ccccc1[N+](=O)[O-])c1c(O)cc(C)oc1=O | 2.06 µM [falling, full curve] | 
37 | CCCCCC(=O)Nc1ccc(N2CCN(S(C)(=O)=O)CC2)cc1 | 7.31 µM [falling, single point] | 
38 | Cc1nc2ccc(NC(=O)c3ccc(S(=O)(=O)N(C)c4ccccc4)cc3)cc2s1 | 20.6 µM [falling, single point] | 
39 | CC(=O)Nc1ccc(NC(=O)c2c(C)nn(Cc3ccccc3)c2Cl)cc1 | 3.16 µM [rising, partial curve, poor fit] | 
40 | Cc1cc2c(ccc3c2no[n+]3[O-])nn1 | 35.5 µM [rising, partial curve, poor fit] | 

A few values from the results shown.
Value for `COC(=O)c1ccccc1OCC(=O)NC1CCCCC1` under AC50 [1]: 4.11 µM [rising, single point]
Value for `O=C(COC(=O)CNC(=O)C12CC3CC(CC(C3)C1)C2)NC1CCS(=O)(=O)C1` (stereo not drawn) under AC50 [1]: 6.51 µM [rising, partial curve, poor fit]
Value for `Nc1nc(-c2ccco2)c(-c2ccco2)s1` under AC50 [1]: 3.55 µM [falling, partial curve]
